According to PubChem BioAssay AID504467 (National Center for Advancing Translational Sciences (NCATS), 2011):
The whole screen tested about 330,000 compounds, of which about 7,700 (2.3%) were called active. Inconclusive results, whose numbers are uncertain, are shown with a selection of clear calls. Calls come from the whole dose curve; as a rule, active = well fitted inhibition curve with a large enough effect; inconclusive = small, poorly fitted or top-dose-only effect, or effect the other way; inactive = flat fitted curve, though single readings scatter. A potency beside an inconclusive call is a rough fit, not a confirmed value.

assay: qHTS screen for small molecules that inhibit ELG1-dependent DNA repair in human embryonic kidney (HEK293T) cells expressing luciferase-tagged ELG1; details: HEK293T ELG1-luciferase reporter, luminescence, 16 h, DNA damage induced by 5-fluorouridine; series mostly up to 46.1 µM; note: nearly all actives have a fitted effect of over 55% in size
How it was run: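 DMSO vehicle served as the neutral condition. Each well held 2,000 cells given 5-fluorouridine plus compound; after 16 hr at 37 °C/5% CO2, ONE-Glo was added and luciferase measured 30 min later.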
Potency is the fitted concentration of half-maximal effect.

Row | SMILES | Potency
1 | O=C(Nc1nc2ccc(F)cc2s1)c1ccccn1 | inconclusive: 0.326 µM [activator, partial curve]
2 | CCS(=O)(=O)N1CCCC(C(=O)NCc2ccccc2Cl)C1 (centres undefined) | inconclusive: 14.6 µM [activator, single point]
3 | COC(=O)Cc1ccc(NC(=O)c2ccccc2Cl)cc1 | inconclusive: 29.1 µM [activator, single point]
4 | CCCN1C(=O)c2[nH]nc(-c3cc(Cl)c(C)cc3O)c2C1c1ccc(O)c(OC)c1 (centres undefined) | inconclusive: 4.61 µM [inhibitor, full curve, poor fit]
5 | CCN(c1ccccc1)S(=O)(=O)c1ccc(N2CCN(c3ccccc3O)CC2)nc1 | inconclusive: 14.6 µM [inhibitor, single point]
6 | O=C(O)/C=C/C(=O)Nc1ccc(Oc2ccccc2)cc1 | inactive
7 | COc1ccccc1NC(=O)CSc1nc(SC)ns1 | inconclusive: 25.9 µM [activator, single point]
8 | Cc1csc(=O)n1CCC(=O)OCC(=O)c1c(N)n(CC(C)C)c(=O)n(C)c1=O | inconclusive: 4.11 µM [inhibitor, single point]
9 | COc1cc(NC(=O)COC(=O)CSc2cc(C)ccc2C)c(C)cc1[N+](=O)[O-] | inactive
10 | CCc1cc(CNC(=O)c2ccc3nc(Cc4ccc(OC)c(OC)c4)oc3c2)on1 | inconclusive: 11.6 µM [inhibitor, partial curve, poor fit]
11 | CC[C@]12c3[nH]c4cc(-c5ccco5)ccc4c3CCN1C(=O)[C@@H](CC(=O)NCc1ccco1)C[C@@H]2C(=O)N1CCN(C(=O)c2ccco2)CC1 | inconclusive: 23.1 µM [inhibitor, partial curve, poor fit]
12 | O=c1c2ccccc2c(C=Nc2ccccc2O)c(O)n1-c1nccs1 | active: 16.4 µM
13 | O=C(O)C1C2C=CC(C3CC23)C1C(=O)NCCc1ccccc1 (centres undefined) | inconclusive: 29.1 µM [activator, single point]
14 | O=C(c1cc(COc2ccc(F)cc2Cl)on1)N1CCN(C2CCCC2)CC1 | inactive
15 | COc1cccc(/C=N/n2c(-c3cc(C)[nH]n3)n[nH]c2=S)c1O | inactive
16 | Cc1cccc(NC(=S)NC(C)CCc2ccccc2)c1 (centres undefined) | inactive
17 | O=C(CSc1nc2ccsc2c(=O)n1Cc1ccc(C(=O)O)cc1)NCc1ccco1 | inactive
18 | CC1CC(C)(C)N(C(=O)CSc2ccc(-c3ccc(F)cc3)nn2)c2ccccc21 (centres undefined) | inconclusive: 29.1 µM [inhibitor, single point]
19 | COc1ccc(-c2cc(C(=O)NC(Cc3c[nH]c4ccccc34)C(=O)O)c(C)o2)cc1OC (centres undefined) | inconclusive: 14.6 µM [activator, partial curve, poor fit]

Two records drawn at random from the list so far:
Row | SMILES | Potency
7 | COc1ccccc1NC(=O)CSc1nc(SC)ns1 | inconclusive: 25.9 µM [activator, single point]
9 | COc1cc(NC(=O)COC(=O)CSc2cc(C)ccc2C)c(C)cc1[N+](=O)[O-] | inactive
